Substitutions are numbered along the chain they refer to. Names and notes keep the numbering of the source. Results are given in words; binding and its absence hold for the method and conditions named. A result given as binding can be weak or reduced; the word gives no strength.
B1: MICA mutant N69Q_Q108L_Q120I_K154S_T155D (ligand, UniProt Q29983 24-297)
chain: EPHSLRYNLTVLSWDGSVQSGFLTEVHLDGQPFLRCDRQKCRAKPQGQWAEDVLGNKTWDRETRDLTGQGKDLRMTLAHIKDQKEGLHSLQEIRVCEIHEDNSTRSSLHFYYDGELFLSINLETKEWTMPQSSRAQTLAMNVRNFLKEDAMKTSDHYHAMHADCLQELRRYLKSGVVLRRTVPPMVNVTRSEASEGNITVTCRASGFYPWNITLSWRQDGVSLSHDTQQWGDVLPDGNGTYQTWVATRICQGEEQRFTCYMEHSGNHSTHPVPS
B2: MICA mutant K152V_Y157L (ligand, UniProt Q29983 24-297)
chain: B1 chain with Q69N, L108Q, I120Q, K152V, S154K, D155T, Y157L
B3: MICA mutant K154D (ligand, UniProt Q29983 24-297)
chain: B1 chain with Q69N, L108Q, I120Q, S154D, D155T
B4: MICA mutant Q108L (ligand, UniProt Q29983 24-297)
chain: B1 chain with Q69N, I120Q, S154K, D155T
B5: wild-type MICA (ligand, UniProt Q29983 24-297)
chain: B1 chain with Q69N, L108Q, I120Q, S154K, D155T
B6: MICA mutant Q120I (ligand, UniProt Q29983 24-297)
chain: B1 chain with Q69N, L108Q, S154K, D155T
B7: MICA mutant N69W (ligand, UniProt Q29983 24-297)
chain: B1 chain with Q69W, L108Q, I120Q, S154K, D155T
B8: MICA mutant N69W_K152E_K154S (ligand, UniProt Q29983 24-297)
chain: B1 chain with Q69W, L108Q, I120Q, K152E, D155T
B9: MICA mutant N69W_K152E_K154D (ligand, UniProt Q29983 24-297)
chain: B1 chain with Q69W, L108Q, I120Q, K152E, S154D, D155T
B10: MICA mutant K152E_K154M (ligand, UniProt Q29983 24-297)
chain: B1 chain with Q69N, L108Q, I120Q, K152E, S154M, D155T
B11: MICA mutant N69W_D72F_K152E (ligand, UniProt Q29983 24-297)
chain: B1 chain with Q69W, D72F, L108Q, I120Q, K152E, S154K, D155T
B12: MICA mutant N69Q_D72F_K154S_T155D (ligand, UniProt Q29983 24-297)
chain: B1 chain with D72F, L108Q, I120Q
B13: MICA mutant N69W_D72W_K152E (ligand, UniProt Q29983 24-297)
chain: B1 chain with Q69W, D72W, L108Q, I120Q, K152E, S154K, D155T
B14: MICA mutant N69W_K152E (ligand, UniProt Q29983 24-297)
chain: B1 chain with Q69W, L108Q, I120Q, K152E, S154K, D155T
B15: MICA mutant K154P (ligand, UniProt Q29983 24-297)
chain: B1 chain with Q69N, L108Q, I120Q, S154P, D155T
B16: MICA mutant Q108W (ligand, UniProt Q29983 24-297)
chain: B1 chain with Q69N, L108W, I120Q, S154K, D155T
B17: MICA mutant N69Q_Q120I_K154S_T155D (ligand, UniProt Q29983 24-297)
chain: B1 chain with L108Q
B18: MICA mutant N69Q_D72F_Q108L_K152V_Y157L (ligand, UniProt Q29983 24-297)
chain: B1 chain with D72F, I120Q, K152V, S154K, D155T, Y157L
B19: MICA mutant K152V_K154S_T155D_Y157L (ligand, UniProt Q29983 24-297)
chain: B1 chain with Q69N, L108Q, I120Q, K152V, Y157L
B20: MICA mutant N69Q_K154D (ligand, UniProt Q29983 24-297)
chain: B1 chain with L108Q, I120Q, S154D, D155T
B21: MICA mutant N69Q_D72F_Q108L (ligand, UniProt Q29983 24-297)
chain: B1 chain with D72F, I120Q, S154K, D155T
B22: MICA mutant N69Q_D72F (ligand, UniProt Q29983 24-297)
chain: B1 chain with D72F, L108Q, I120Q, S154K, D155T
B23: MICA mutant N69Q (ligand, UniProt Q29983 24-297)
chain: B1 chain with L108Q, I120Q, S154K, D155T
B24: MICA mutant N69Q_Q120I_K154S_T155D_Y157L (ligand, UniProt Q29983 24-297)
chain: B1 chain with L108Q, Y157L
B25: MICA mutant K154S_T155D (ligand, UniProt Q29983 24-297)
chain: B1 chain with Q69N, L108Q, I120Q
B26: MICA mutant K152V_K154S_T155D (ligand, UniProt Q29983 24-297)
chain: B1 chain with Q69N, L108Q, I120Q, K152V
B27: MICA mutant D72W (ligand, UniProt Q29983 24-297)
chain: B1 chain with Q69N, D72W, L108Q, I120Q, S154K, D155T

The chains behind the UniProt entries cited, without tags or fusion partners. Where a name states a change or a piece, a line headed by the entry shows the natural chain unless it says otherwise.
UniProt P26718: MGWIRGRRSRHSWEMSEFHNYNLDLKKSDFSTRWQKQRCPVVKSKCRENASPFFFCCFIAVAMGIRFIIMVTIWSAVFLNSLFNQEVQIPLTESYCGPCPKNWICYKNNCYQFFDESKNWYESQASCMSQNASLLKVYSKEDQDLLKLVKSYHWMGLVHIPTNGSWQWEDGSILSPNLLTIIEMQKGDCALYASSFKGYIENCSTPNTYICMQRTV

The binders below were run against homodimeric NKG2D (UniProt P26718) (assay: SEC; small-zone analytical SEC, Superdex 75 10/300, 0.5 mL/min, HBS-EA (10 mM HEPES pH 7.4, 150 mM NaCl, 3 mM EDTA, 0.02% sodium azide), no urea; homodimeric NKG2D and MICA mixed and immediately injected; ++ separate ~60-kDa peak, + early shoulder to the ~30-kDa peak, - only the ~30-kDa peak; both purified).

Binder	binding
B1	binds
B2	binds
B3	binds
B4	binds
B5	binds
B6	binds
B7	binds
B8	binds
B9	binds
B10	binds
B11	binds
B12	binds
B13	binds
B14	binds
B15	binds
B16	binds
B17	binds
B18	binds
B19	binds
B20	binds
B21	binds
B22	binds
B23	binds
B24	no binding (tested: 20 μmol each in 300 μL)
B25	no binding (tested: 20 μmol each in 300 μL)
B26	no binding (tested: 20 μmol each in 300 μL)
B27	no binding (tested: 20 μmol each in 300 μL)

What follows are binders tested against homodimeric NKG2D (UniProt P26718) (assay: SPR; equilibrium binding analysis as used in the previous study [13]; fast kinetics precluded kinetic fits; both purified).

Binder	binding
B15	binds
B16	binds

The binders below were run against homodimeric NKG2D (UniProt P26718) (assay: SEC; small-zone analytical SEC as a1, column saturated with HBS-EA containing 1 M urea; both purified).

Binder	binding
B5	no binding (only with 1 M urea in the buffer)
B9	binds
B15	no binding (only with 1 M urea in the buffer)
B16	no binding (only with 1 M urea in the buffer)

From publication PMC2717102
